Some of the results follow.

Amino acid sequences for entries named in this document (tags omitted). A change or cut given only in a name is not applied to a line headed by its entry.
UniProt P07996: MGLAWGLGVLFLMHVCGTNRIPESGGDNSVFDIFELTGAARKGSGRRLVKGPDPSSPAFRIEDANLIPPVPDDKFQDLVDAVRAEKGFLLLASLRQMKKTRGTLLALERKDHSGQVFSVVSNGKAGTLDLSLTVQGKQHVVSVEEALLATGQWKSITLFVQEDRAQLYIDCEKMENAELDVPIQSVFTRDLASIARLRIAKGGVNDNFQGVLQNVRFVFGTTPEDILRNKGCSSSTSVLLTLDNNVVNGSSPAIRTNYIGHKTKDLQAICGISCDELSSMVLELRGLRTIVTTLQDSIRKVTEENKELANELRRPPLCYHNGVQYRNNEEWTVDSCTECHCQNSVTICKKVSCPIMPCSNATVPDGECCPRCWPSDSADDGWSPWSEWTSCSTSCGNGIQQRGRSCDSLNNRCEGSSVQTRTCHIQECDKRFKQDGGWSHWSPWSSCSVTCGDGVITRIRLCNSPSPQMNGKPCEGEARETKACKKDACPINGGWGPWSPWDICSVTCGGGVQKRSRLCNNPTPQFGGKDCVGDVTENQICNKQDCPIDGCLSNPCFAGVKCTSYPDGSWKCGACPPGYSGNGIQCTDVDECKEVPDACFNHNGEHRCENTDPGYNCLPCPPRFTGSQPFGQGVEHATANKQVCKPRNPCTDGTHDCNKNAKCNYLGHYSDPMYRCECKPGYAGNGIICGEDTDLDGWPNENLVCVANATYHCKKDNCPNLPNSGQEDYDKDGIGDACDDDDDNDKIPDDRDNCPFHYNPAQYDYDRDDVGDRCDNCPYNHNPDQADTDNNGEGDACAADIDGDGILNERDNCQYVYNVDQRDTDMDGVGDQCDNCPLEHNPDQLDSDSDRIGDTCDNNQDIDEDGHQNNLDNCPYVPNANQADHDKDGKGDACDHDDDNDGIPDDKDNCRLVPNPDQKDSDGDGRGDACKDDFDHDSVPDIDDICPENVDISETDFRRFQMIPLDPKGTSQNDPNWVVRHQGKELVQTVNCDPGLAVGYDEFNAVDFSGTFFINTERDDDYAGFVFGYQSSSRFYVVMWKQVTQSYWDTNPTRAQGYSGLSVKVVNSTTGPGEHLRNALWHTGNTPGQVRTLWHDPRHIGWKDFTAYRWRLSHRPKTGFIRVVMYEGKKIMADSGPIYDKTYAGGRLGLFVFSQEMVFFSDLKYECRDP
UniProt P15923: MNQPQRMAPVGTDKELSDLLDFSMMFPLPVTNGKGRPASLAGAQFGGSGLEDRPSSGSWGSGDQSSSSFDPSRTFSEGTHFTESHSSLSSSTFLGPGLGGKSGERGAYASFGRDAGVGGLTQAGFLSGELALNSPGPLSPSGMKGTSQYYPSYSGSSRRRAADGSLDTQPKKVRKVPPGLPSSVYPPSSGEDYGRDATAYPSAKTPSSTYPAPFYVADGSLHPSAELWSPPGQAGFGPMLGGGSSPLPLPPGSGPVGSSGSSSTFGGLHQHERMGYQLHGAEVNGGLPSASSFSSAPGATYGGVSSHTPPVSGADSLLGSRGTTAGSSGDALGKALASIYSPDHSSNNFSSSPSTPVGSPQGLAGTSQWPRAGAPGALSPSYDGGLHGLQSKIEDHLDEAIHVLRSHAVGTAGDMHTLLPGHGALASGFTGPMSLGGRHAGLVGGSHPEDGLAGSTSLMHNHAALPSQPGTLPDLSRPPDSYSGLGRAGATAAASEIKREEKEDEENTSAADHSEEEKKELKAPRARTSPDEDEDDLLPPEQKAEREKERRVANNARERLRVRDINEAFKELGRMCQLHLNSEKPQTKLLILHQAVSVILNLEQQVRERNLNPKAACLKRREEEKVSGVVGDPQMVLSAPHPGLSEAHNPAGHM
UniProt Q8NI27: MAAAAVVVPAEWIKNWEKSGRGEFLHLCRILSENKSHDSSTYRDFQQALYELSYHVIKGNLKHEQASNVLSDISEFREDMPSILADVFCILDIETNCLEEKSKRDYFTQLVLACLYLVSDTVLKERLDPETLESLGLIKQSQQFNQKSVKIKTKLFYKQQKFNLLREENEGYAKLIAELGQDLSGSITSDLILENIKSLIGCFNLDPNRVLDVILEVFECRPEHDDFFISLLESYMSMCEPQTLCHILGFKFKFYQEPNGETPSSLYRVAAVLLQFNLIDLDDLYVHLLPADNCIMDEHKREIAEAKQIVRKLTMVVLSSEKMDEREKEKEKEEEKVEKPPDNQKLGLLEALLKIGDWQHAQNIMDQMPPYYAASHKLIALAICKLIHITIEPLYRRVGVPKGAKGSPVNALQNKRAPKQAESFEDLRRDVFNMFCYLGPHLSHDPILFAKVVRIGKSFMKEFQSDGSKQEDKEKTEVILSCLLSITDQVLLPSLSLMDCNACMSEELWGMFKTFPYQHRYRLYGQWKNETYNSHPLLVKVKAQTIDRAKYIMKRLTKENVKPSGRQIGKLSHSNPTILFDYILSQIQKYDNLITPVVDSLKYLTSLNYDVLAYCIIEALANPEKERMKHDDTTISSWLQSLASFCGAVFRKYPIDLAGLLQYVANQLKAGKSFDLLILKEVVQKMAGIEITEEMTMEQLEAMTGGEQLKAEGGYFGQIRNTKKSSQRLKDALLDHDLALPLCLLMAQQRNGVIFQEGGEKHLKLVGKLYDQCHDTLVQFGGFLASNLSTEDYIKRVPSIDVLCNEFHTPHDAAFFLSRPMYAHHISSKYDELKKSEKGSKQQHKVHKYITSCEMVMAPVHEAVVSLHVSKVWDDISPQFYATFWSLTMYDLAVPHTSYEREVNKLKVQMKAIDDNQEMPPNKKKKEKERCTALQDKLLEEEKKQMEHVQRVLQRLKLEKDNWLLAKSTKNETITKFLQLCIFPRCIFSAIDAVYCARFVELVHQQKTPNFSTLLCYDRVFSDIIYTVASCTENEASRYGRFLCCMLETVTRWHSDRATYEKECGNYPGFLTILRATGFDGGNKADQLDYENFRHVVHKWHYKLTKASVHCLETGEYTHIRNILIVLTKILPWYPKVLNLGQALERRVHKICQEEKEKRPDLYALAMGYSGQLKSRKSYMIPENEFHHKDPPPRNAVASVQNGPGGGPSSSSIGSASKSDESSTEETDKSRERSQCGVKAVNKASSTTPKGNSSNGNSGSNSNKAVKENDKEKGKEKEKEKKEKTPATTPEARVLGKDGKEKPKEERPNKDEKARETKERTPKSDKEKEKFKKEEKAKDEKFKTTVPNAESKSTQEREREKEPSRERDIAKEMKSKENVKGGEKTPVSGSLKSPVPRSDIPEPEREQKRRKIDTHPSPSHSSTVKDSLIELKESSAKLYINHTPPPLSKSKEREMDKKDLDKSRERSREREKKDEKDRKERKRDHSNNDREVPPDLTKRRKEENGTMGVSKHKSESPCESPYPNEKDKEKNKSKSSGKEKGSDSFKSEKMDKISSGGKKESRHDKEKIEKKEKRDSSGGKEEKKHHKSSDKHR
UniProt Q8IYQ7: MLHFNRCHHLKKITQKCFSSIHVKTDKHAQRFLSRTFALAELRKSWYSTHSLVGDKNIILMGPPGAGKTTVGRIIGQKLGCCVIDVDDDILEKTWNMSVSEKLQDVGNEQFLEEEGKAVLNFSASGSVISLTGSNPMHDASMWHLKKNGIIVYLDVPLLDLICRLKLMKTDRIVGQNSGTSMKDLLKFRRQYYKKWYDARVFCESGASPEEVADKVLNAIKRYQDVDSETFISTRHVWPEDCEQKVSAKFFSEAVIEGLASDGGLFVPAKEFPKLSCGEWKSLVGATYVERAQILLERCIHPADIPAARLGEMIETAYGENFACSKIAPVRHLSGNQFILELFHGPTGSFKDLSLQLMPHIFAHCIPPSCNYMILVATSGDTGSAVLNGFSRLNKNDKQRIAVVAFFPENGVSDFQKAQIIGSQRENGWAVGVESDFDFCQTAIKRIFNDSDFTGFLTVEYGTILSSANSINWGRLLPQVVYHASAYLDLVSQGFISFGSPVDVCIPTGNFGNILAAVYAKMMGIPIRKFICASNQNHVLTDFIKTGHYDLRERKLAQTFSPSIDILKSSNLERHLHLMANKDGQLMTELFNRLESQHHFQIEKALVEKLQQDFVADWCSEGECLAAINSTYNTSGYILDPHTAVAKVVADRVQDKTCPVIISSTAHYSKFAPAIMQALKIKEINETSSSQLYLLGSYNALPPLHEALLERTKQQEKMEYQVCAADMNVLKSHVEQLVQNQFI
UniProt Q6I9Y2: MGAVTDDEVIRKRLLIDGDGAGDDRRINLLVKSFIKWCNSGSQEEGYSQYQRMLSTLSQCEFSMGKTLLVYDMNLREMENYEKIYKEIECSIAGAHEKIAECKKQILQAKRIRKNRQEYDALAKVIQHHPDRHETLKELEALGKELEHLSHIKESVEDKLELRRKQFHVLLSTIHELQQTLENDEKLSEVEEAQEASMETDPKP
UniProt Q3LXA3: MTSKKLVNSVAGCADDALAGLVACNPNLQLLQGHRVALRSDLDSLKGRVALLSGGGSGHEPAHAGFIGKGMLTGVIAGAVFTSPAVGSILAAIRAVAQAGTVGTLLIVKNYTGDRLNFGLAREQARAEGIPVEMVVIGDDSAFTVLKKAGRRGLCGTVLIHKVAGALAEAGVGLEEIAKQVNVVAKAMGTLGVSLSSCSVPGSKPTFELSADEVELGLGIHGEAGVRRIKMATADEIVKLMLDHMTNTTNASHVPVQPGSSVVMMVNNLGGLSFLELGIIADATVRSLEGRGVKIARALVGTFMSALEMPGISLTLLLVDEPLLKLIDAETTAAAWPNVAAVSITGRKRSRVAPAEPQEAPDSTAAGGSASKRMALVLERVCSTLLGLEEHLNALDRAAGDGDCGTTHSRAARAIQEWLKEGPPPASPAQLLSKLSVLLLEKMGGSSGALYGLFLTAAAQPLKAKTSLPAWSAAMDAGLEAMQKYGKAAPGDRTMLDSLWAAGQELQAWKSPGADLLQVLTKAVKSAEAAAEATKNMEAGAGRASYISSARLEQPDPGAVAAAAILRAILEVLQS
UniProt Q9Y2W6: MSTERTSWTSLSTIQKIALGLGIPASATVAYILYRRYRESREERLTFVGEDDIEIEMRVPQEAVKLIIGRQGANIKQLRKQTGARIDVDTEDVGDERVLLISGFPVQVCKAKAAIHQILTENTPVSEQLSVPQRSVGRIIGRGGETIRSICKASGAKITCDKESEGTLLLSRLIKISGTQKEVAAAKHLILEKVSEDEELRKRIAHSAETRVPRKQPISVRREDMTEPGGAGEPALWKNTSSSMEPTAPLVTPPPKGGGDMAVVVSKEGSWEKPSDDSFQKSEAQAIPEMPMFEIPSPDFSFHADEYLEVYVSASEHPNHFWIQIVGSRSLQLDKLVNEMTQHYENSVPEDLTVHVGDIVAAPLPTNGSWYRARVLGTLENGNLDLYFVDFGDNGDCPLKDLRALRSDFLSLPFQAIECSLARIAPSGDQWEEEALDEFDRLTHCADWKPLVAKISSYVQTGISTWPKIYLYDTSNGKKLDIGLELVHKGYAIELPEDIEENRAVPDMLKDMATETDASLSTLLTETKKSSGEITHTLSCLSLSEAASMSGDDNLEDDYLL
UniProt P02787, whole entry, looked up: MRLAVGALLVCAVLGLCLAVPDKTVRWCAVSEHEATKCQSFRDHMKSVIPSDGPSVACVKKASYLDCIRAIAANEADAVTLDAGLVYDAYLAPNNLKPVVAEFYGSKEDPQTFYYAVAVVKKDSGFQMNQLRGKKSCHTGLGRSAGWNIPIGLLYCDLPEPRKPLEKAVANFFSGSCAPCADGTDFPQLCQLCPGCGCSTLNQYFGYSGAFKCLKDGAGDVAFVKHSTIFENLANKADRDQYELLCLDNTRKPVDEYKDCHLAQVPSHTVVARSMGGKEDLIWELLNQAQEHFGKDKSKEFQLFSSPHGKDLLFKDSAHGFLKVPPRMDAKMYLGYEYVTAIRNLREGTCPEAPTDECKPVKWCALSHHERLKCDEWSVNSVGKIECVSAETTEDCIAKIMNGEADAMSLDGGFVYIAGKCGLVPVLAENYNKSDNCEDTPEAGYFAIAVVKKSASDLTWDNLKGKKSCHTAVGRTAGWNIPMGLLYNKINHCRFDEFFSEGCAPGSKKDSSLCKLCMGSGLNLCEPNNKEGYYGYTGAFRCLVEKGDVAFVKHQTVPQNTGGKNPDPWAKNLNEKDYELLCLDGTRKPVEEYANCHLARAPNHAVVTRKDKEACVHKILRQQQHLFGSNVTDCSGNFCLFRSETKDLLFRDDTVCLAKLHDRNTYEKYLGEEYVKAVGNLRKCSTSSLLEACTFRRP
UniProt Q86W42: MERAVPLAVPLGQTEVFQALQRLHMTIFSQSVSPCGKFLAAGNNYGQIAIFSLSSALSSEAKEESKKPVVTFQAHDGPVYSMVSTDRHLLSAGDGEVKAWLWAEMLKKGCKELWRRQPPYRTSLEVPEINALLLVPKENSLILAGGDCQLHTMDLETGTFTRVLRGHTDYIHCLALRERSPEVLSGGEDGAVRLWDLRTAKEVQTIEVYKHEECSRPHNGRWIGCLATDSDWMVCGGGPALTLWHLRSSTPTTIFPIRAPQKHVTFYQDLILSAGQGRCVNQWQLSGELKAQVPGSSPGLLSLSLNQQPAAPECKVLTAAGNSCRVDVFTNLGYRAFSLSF

Compound in the test: C=CC(=O)N1CCC[C@@H](n2nc(-c3ccc(Oc4ccccc4)cc3)c3c(N)ncnc32)C1 [ibrutinib]
Put plainly: log2 fold change, soluble protein after heating vs DMSO (PISA); higher = thermal stabilisation; K562 cells, 10 uM, 30 min; active = over 0.2 and 3.5 SD of the protein, either way, in both replicates (recomputed). Summed up:
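Values are thermal stability changes relative to control samples and are taken from duplicates. They are stated as log2 fold changes. Before quantification by TMTpro 16plex LC-MS/MS with equalised channel sums, K562 cells at 2×10^6 cells/mL were treated with 10 μM compound for 30 min, heated in aliquots for 3 min across 48°C-58°C, pooled, extracted in PBS with 0.5% NP-40 at 4°C, and centrifuged at 21,000xg for 90 min to give the soluble supernatant.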
Take TJAP1 (UniProt Q5JTD0): the log2 fold change is inactive: 0.028.

Regarding TCEA1 (UniProt P23193), the log2 fold change is inactive: -0.025.

As to TIMM50 isoform 2 (UniProt Q3ZCQ8), the log2 fold change is inactive: 0.005.

For the target THUMPD1 (UniProt Q9NXG2), the log2 fold change is inactive: 0.005.

Consider THBS1 (UniProt P07996), for which the log2 fold change was inactive: 0.054.

Regarding TCIRG1 (UniProt Q13488), the log2 fold change is inactive: -0.008.

With TCF3 (UniProt P15923), the log2 fold change is inactive: -0.046.

With THOC1 (UniProt Q96FV9), the log2 fold change is inactive: -0.045.

As for THOC2 (UniProt Q8NI27), the log2 fold change was inactive: -0.043.

For the target THNSL1 (UniProt Q8IYQ7), the log2 fold change was inactive: -0.04.

In the case of TBC1D22B (UniProt Q9NU19), the log2 fold change is inactive: 0.003.

For TLCD4 (UniProt Q96MV1), the log2 fold change is inactive: 0.012.

In the case of THOC7 (UniProt Q6I9Y2), the log2 fold change is inactive: -0.019.

In the case of TKFC (UniProt Q3LXA3), the log2 fold change was inactive: -0.008.

For TGFBR3 (UniProt Q03167), the log2 fold change is inactive: 0.01.

For the target TKT isoform 2 (UniProt P29401), the log2 fold change was inactive: -0.04.

As for TDRKH (UniProt Q9Y2W6), the log2 fold change is inactive: -0.063.

In the case of TGOLN2 isoform 7 (UniProt O43493), the log2 fold change was inactive: 0.038.

TBCC (UniProt Q15814): the log2 fold change is inactive: -0.029.

For TF (UniProt P02787), the log2 fold change is inactive: 0.144.

TDP2 isoform 2 (UniProt O95551): the log2 fold change was inactive: -0.049.

With TERF2 (UniProt Q15554), the log2 fold change is inactive: -0.052.

As to THOC6 (UniProt Q86W42), the log2 fold change is inactive: 0.007.
